# US4528133A (SPOFA, spojene podniky pro zdravotnickou vyrobu, priority 1982, dated 1985)
# Assay: general procedure: solution-phase peptide synthesis; N,N'-dicyclohexyl carbodiimide
# Conditions: coupling step
row,Substance,step yield [%]
1,Ac-Asp(OBzl)-Ala-Ala-Pro-NH-iBu,45
2,Ac-Asp(OBzl)-Gly-Ala-Pro-NH-iBu,52
3,BOC-Glu(OBzl)-Ala-Ala-Ala-NH-iBu,55

# Same assay, conditions: late stage modification step
row,Substance,step yield [%]
1,Glu(OBzl)-Ala-Ala-Ala-NH-iBu.HCl,69
2,N^α -Butyrylaspartyl-alanyl-alanyl-proline isobutylamide,76
3,N^α -caproylglutamyl-alanyl-alanyl-alanine isobutylamide,63
